The target of test [1] is GST-SET fusion protein (UniProt Q01105). Nature of the test: pull-down; GST-SET immobilised on glutathione-agarose, incubated with purified Flag-tagged FOXO1 or FOXO1^KQ; bound proteins seen by Western blot with anti-Flag antibody; both purified.
Test [2] addresses Flag-tagged FOXO1 (expressed in HEK293T) (UniProt Q12778). As to the kind of experiment: co-IP; HEK293T cells co-transfected with Myc-SET and Flag-FOXO1 or Flag-FOXO1^KQ; whole cell extracts; immunoprecipitation with Flag (M2) affinity beads; Western blot for the Myc and Flag tags.

Protein sequences, listed by entry. Tags and fused reporters are not part of them.
UniProt Q01105: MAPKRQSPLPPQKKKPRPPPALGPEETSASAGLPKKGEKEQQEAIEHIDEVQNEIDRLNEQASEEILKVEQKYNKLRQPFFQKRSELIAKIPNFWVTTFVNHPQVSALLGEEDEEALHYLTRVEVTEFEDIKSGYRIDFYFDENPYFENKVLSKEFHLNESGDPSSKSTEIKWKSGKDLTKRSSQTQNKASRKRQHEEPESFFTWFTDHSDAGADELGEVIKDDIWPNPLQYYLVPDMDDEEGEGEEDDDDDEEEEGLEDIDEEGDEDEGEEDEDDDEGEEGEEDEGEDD
UniProt Q12778: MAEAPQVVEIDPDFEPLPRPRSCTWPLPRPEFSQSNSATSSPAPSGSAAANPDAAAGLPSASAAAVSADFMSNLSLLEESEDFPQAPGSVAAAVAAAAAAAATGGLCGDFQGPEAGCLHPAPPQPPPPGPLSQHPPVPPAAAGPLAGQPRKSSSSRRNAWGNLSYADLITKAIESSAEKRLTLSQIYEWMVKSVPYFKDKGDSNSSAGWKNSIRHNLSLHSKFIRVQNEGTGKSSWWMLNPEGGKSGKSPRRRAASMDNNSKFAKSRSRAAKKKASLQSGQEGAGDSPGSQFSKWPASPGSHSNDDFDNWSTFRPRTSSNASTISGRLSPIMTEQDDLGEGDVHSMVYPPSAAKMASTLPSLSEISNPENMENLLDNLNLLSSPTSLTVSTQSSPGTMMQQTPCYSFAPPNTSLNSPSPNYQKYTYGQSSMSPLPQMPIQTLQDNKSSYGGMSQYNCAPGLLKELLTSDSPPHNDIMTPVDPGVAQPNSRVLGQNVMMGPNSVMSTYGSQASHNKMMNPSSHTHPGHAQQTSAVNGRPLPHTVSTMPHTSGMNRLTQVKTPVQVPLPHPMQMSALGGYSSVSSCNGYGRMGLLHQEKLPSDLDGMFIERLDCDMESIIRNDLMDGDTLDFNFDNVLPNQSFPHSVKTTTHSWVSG

These are yes or no findings as the source states them, for the method shown. For some assays here: Binding seen in cells or lysates may run through a third protein. Some binding calls cover weakened binding; strength is not graded here.

With “Flag-tagged full-length wild type FOXO1 (purified) (from UniProt Q12778 1-655)”, the binding result in test [1] was “binds”. In the case of “Myc-tagged SET (from UniProt Q01105 1-290)”, the binding result in test [2] is “binds”.

The record behind these values is article PMC6411979.
